# Experimental data: PubChem BioAssay AID1259405 (NCATS, 2018)
# Purpose: 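Silenced genes that increase secreted GFP made by CHO cells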 (primary screen)
# System: Chinese hamster CHO-K1 ovary cells with stable secreted eGFP expression
# Knock-down reagent: single siRNA against mouse genes, 0.8 pmol siRNA per well (2 µl of 400 nM stock)
# Timing: 3 days
# Measured: 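Percent of the per-plate non-targeting control median for intracellular GFP per well by laser scanning cytometry and for cell viability by ATP luminescence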
# Direction: GFP, % of control: higher = more GFP per well, higher productivity; viability (ATP), % of control: higher = more viable cells (more ATP)
# Active means: 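a knock-down is called active if GFP reaches 120% or more of non-targeting control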
# This is an unselected part of about 50,000 deposited reagents. About 4,000 of all reagents (8%) were called active. 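Mouse siRNA library applied to hamster cells; one well for each siRNA.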 A number with no mark means an inactive call. Reagents against one gene are numbered here. No sequences are given here.
Target gene,reagent,"GFP, % of control","viability (ATP), % of control"
Kctd7 (potassium channel tetramerisation domain containing 7),1,86.8,82.4
Kctd7 (potassium channel tetramerisation domain containing 7),2,162 (active),95.1
Kctd7 (potassium channel tetramerisation domain containing 7),3,35.4,71.9
Gm9732 (predicted gene 9732),1,74.6,75.3
Gm9732 (predicted gene 9732),2,84.3,88.7
Gm9732 (predicted gene 9732),3,65.4,84
"Atp2c1 (ATPase, Ca++-sequestering)",1,75.9,66.4
"Atp2c1 (ATPase, Ca++-sequestering)",2,88.9,99.9
"Atp2c1 (ATPase, Ca++-sequestering)",3,51.3,53.4
Rpl10a (ribosomal protein L10A),1,79.8,78.5
Rpl10a (ribosomal protein L10A),2,73.3,50.4
Rpl10a (ribosomal protein L10A),3,115,86.1
Jazf1 (JAZF zinc finger 1),1,57.9,52.8
Jazf1 (JAZF zinc finger 1),2,61.6,54.9
Jazf1 (JAZF zinc finger 1),3,34.7,34.9
Mrpl38 (mitochondrial ribosomal protein L38),1,31.9,49.3
Mrpl38 (mitochondrial ribosomal protein L38),2,87.6,77.8
Mrpl38 (mitochondrial ribosomal protein L38),3,74.8,93.4
Ltap1 (lipid transport auxiliary protein 1),1,82.9,68.9
Ltap1 (lipid transport auxiliary protein 1),2,76.2,87.8
Ltap1 (lipid transport auxiliary protein 1),3,84.1,90.1
Echdc2 (enoyl Coenzyme A hydratase domain containing 2),1,136 (active),101
Echdc2 (enoyl Coenzyme A hydratase domain containing 2),2,59.2,56.6
Echdc2 (enoyl Coenzyme A hydratase domain containing 2),3,69,48.6
"Prkcz (protein kinase C, zeta)",1,77.6,62.8
"Prkcz (protein kinase C, zeta)",2,87,87.4
"Prkcz (protein kinase C, zeta)",3,69.3,78.8
Antxr2 (anthrax toxin receptor 2),1,69.5,66
Antxr2 (anthrax toxin receptor 2),2,80.9,66
Antxr2 (anthrax toxin receptor 2),3,70.8,76.7
Bcl7a (B cell CLL/lymphoma 7A),1,65.1,60.8
Bcl7a (B cell CLL/lymphoma 7A),2,90.1,94.3
Bcl7a (B cell CLL/lymphoma 7A),3,99,124
"Lrrc8e (leucine rich repeat containing 8 family, member E)",1,84.7,87.3
"Lrrc8e (leucine rich repeat containing 8 family, member E)",2,49.2,62.9
"Lrrc8e (leucine rich repeat containing 8 family, member E)",3,60.6,72.4

A stretch of the results above:
Target gene,reagent,"GFP, % of control","viability (ATP), % of control"
Kctd7 (potassium channel tetramerisation domain containing 7),2,162 (active),95.1
Kctd7 (potassium channel tetramerisation domain containing 7),3,35.4,71.9
